Changes are numbered by the printed parent chain. The exact form of at least one protein or probe is not confirmed. A weaker result is weaker than the reference pair of the same experiment. Where a protein sequence is shown, tags need not be part of it.
Experiments:
[1] = molecular target: T1, Hrq1 (Saccharomyces cerevisiae) (UniProt Q05549); assay: EMSA; settings: 7.5 mM Mg2+
T1 sequence (looked up, limits assumed): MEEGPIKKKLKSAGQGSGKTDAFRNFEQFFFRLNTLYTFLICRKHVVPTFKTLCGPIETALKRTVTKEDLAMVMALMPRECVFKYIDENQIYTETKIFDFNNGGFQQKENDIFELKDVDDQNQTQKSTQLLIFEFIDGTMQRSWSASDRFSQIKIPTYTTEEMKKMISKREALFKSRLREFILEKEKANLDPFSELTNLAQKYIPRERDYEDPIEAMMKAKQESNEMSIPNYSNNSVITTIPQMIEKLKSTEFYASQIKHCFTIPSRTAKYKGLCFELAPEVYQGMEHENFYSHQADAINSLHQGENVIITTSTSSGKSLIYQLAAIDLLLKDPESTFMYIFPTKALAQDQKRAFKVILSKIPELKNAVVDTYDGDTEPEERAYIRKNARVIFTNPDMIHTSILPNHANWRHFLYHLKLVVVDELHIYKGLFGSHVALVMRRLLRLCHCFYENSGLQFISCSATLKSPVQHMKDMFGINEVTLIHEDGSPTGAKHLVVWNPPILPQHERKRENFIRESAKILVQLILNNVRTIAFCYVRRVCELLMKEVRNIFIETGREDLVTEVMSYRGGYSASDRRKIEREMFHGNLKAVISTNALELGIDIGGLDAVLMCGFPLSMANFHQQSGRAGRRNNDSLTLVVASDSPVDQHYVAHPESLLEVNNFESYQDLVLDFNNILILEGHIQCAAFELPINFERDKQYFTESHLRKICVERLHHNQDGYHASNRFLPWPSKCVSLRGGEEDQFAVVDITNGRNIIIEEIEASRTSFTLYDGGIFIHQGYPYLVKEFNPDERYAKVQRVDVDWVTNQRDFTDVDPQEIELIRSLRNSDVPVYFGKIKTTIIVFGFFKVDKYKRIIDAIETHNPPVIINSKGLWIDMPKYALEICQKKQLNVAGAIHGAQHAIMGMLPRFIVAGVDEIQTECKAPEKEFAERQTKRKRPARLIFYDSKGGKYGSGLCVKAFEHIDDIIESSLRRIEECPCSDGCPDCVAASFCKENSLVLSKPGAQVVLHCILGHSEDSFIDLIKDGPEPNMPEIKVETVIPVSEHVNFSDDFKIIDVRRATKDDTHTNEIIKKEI

[2] = molecular target: T2, Hrq1-K318A (Saccharomyces cerevisiae) (UniProt Q05549); assay: EMSA; settings: 7.5 mM Mg2+
T2 sequence (looked up, limits assumed): T1 sequence (looked up, limits assumed) with K318A

Measured: binding result

TGTGGTGTGTGTGGG [Tel15]
binds more weakly: [1]; 4 mM ATP (no significant effect) | [1]; no ATP | [2]; 4 mM ATP, very weak but detectable | [2]; no ATP, only basal binding
